{"source": "patent US20080233151A1", "about": "“Use of non-antibacterial tetracycline analogs and formulations thereof for the treatment of bacterial exotoxins” (priority 2002, published 2008)", "origin": "cited, not measured here", "test_system": "exotoxins released by the bacteria", "settings": "cited from earlier work", "data": [{"smiles": "O=C(O)c1cn(C2CC2)c2cc(N3CCNCC3)c(F)cc2c1=O", "note": "[ciprofloxacin]", "values": [{"measurement": "effect on the exotoxins released by the bacteria", "value": "substantially no effect"}]}]}
